Data as given in PubChem BioAssay AID602196 (INSERM, 2012).

- Purpose: 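Modifiers of cisplatin sensitivity in A549 cells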
- Cells: human A549 lung cancer cells
- Reagent: siRNA pair against human genes
- Timing: 48 h transfection before cisplatin; time from cisplatin to read-out not stated
- Challenge: cisplatin at a dose killing half of control-siRNA cells; exact dose and duration not given
- Measured: 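Shift in cisplatin death relative to control siRNA, from -50 (all cells die) to +50 (no cells die); siRNAs harmful on their own scored 0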
- Direction: two-siRNA summed score (-2 to +2): higher = both siRNAs protect from cisplatin killing; -2 means both sensitise; mean protection from cisplatin (shift in death) and protection from cisplatin (shift in death), siRNA C and protection from cisplatin (shift in death), siRNA D: higher = protection from cisplatin killing
- Rule for the call: 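Each siRNA scores 0 if harmful alone by LDH or WST-1, otherwise +1 if it reduces and -1 if it increases cisplatin killing; a gene is active when both siRNAs agree (sum +2 or -2)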
- Calls: active = both siRNAs shift cisplatin killing the same way; inactive = no consistent shift, or siRNA harmful alone
Here is an unselected part of about 23,000 deposited reagents. Over the whole deposit, 455 (2%) got an active call. 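Active includes both protection and sensitisation; some change values fall well beyond the stated -50 to +50 range.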 Not given: the amount of reagent.

gene	two-siRNA summed score (-2 to +2)	mean protection from cisplatin (shift in death) (%)	protection from cisplatin (shift in death), siRNA C (%)	protection from cisplatin (shift in death), siRNA D (%)	Call
KRT6B	0	-3.6	-16.8	9.7	inactive
BANF2	0	6.7	1.9	11.4	inactive
GTF3C4	-1	6	31.7	-19.6	inactive
ANKRD31	0	5.5	11.6	-0.6	inactive
CEP44	0	3.7	0.6	6.8	inactive
NIPAL2	0	13.7	10.6	16.9	inactive
HDDC2	0	-1	-3.5	1.4	inactive
LOC441376	0	-0.8	-8.4	6.7	inactive

Reformatted: entries from further up
CEP44 — two-siRNA summed score (-2 to +2): 0; mean protection from cisplatin (shift in death) (%): 3.7; protection from cisplatin (shift in death), siRNA C (%): 0.6; protection from cisplatin (shift in death), siRNA D (%): 6.8; Call: inactive
NIPAL2 — two-siRNA summed score (-2 to +2): 0; mean protection from cisplatin (shift in death) (%): 13.7; protection from cisplatin (shift in death), siRNA C (%): 10.6; protection from cisplatin (shift in death), siRNA D (%): 16.9; Call: inactive

Additional records follow.
gene	two-siRNA summed score (-2 to +2)	mean protection from cisplatin (shift in death) (%)	protection from cisplatin (shift in death), siRNA C (%)	protection from cisplatin (shift in death), siRNA D (%)	Call
MIPEP	-1	-9.1	7.1	-25.4	inactive
CDC37	0	3.2	8.8	-2.4	inactive
MYO3B	0	19.4	2.4	36.4	inactive
SLC23A3	0	3.7	-3.1	10.5	inactive
GTF3C5	0	12.6	-2.1	27.3	inactive
CTSF	-1	-16.1	-10.9	-21.3	inactive
LOC389415	0	-0.6	1.6	-2.9	inactive
LOC399713	0	3.7	12.9	-5.5	inactive
INPP5A	0	13.8	35.4	-7.7	inactive
SLC7A1	-1	-13	0.4	-26.4	inactive
LOC253970	0	11.3	11.7	10.9	inactive
STRC	0	5.3	1.1	9.5	inactive
LOC441848	0	8.4	6.7	10.1	inactive
RAB6A	0	8.4	3.4	13.4	inactive
LOC392586	0	5.9	2.4	9.4	inactive
